{"source": "PubChem BioAssay AID1508597 (Cure First, 2020)", "test": "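Genes whose silencing sensitises or protects ovarian cancer cells against rucaparib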 (primary screen)", "cells": "human ovarian carcinoma lines grown from tumours: OCI-P5x (papillary serous) and OCI-C5x (clear cell)", "reagent": "siRNA pool against human genes, 1.25 pmol siRNA per well", "timing": "72 h or 96 h, depending on the cell culture", "conditions": "rucaparib 20 µM (about IC30) or vehicle, present until read-out", "measured": "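ATP luminescence measured at 72 or 96 h according to the culture, then normalised and expressed as percent viability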", "direction": "viability, normalised: higher = more viable cells remaining", "call rule": "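a well counts as a hit if its normalised viability is under 80 percent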", "meaning of the calls": "active = viability under 80%; inactive = viability 80% or more", "note": "Shown is an unselected part of about 2,100 reagents. 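Calls flag viability under 80% in either arm, not effects specific to rucaparib; the reference for percent is not stated.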 Unmarked entries are inactive. No sequences are given here. The record does not give: the 100% reference."}
{"target gene":"LRRK2","rucaparib or vehicle":"Rucaparib","cell line":"OCI-C5x (clear cell)","technical replicate":"1","viability, normalised (%)":"68.8 (active)"}
{"target gene":"LRRK2","rucaparib or vehicle":"Rucaparib","cell line":"OCI-C5x (clear cell)","technical replicate":"2","viability, normalised (%)":"53.7 (active)"}
{"target gene":"LRRK2","rucaparib or vehicle":"Rucaparib","cell line":"OCI-C5x (clear cell)","technical replicate":"3","viability, normalised (%)":"65.4 (active)"}
{"target gene":"LRRK2","rucaparib or vehicle":"Rucaparib","cell line":"OCI-P5x (serous)","technical replicate":"1","viability, normalised (%)":125}
{"target gene":"LRRK2","rucaparib or vehicle":"Rucaparib","cell line":"OCI-P5x (serous)","technical replicate":"2","viability, normalised (%)":105}
{"target gene":"LRRK2","rucaparib or vehicle":"Rucaparib","cell line":"OCI-P5x (serous)","technical replicate":"3","viability, normalised (%)":90.6}
{"target gene":"LRRK2","rucaparib or vehicle":"Vehicle","cell line":"OCI-C5x (clear cell)","technical replicate":"1","viability, normalised (%)":"54.5 (active)"}
{"target gene":"LRRK2","rucaparib or vehicle":"Vehicle","cell line":"OCI-C5x (clear cell)","technical replicate":"2","viability, normalised (%)":"66.4 (active)"}
{"target gene":"LRRK2","rucaparib or vehicle":"Vehicle","cell line":"OCI-C5x (clear cell)","technical replicate":"3","viability, normalised (%)":"49.5 (active)"}
{"target gene":"LRRK2","rucaparib or vehicle":"Vehicle","cell line":"OCI-P5x (serous)","technical replicate":"1","viability, normalised (%)":89.8}
{"target gene":"LRRK2","rucaparib or vehicle":"Vehicle","cell line":"OCI-P5x (serous)","technical replicate":"2","viability, normalised (%)":88.6}
{"target gene":"LRRK2","rucaparib or vehicle":"Vehicle","cell line":"OCI-P5x (serous)","technical replicate":"3","viability, normalised (%)":86.1}
{"target gene":"NCOA2","rucaparib or vehicle":"Rucaparib","cell line":"OCI-C5x (clear cell)","technical replicate":"1","viability, normalised (%)":"35.6 (active)"}
{"target gene":"NCOA2","rucaparib or vehicle":"Rucaparib","cell line":"OCI-C5x (clear cell)","technical replicate":"2","viability, normalised (%)":"37.7 (active)"}
{"target gene":"NCOA2","rucaparib or vehicle":"Rucaparib","cell line":"OCI-C5x (clear cell)","technical replicate":"3","viability, normalised (%)":"37.9 (active)"}
{"target gene":"NCOA2","rucaparib or vehicle":"Rucaparib","cell line":"OCI-P5x (serous)","technical replicate":"1","viability, normalised (%)":"58.1 (active)"}
{"target gene":"NCOA2","rucaparib or vehicle":"Rucaparib","cell line":"OCI-P5x (serous)","technical replicate":"2","viability, normalised (%)":"52.3 (active)"}
{"target gene":"NCOA2","rucaparib or vehicle":"Rucaparib","cell line":"OCI-P5x (serous)","technical replicate":"3","viability, normalised (%)":"54.8 (active)"}
{"target gene":"NCOA2","rucaparib or vehicle":"Vehicle","cell line":"OCI-C5x (clear cell)","technical replicate":"1","viability, normalised (%)":"43.8 (active)"}
{"target gene":"NCOA2","rucaparib or vehicle":"Vehicle","cell line":"OCI-C5x (clear cell)","technical replicate":"2","viability, normalised (%)":"38.4 (active)"}
{"target gene":"NCOA2","rucaparib or vehicle":"Vehicle","cell line":"OCI-C5x (clear cell)","technical replicate":"3","viability, normalised (%)":"39.6 (active)"}
{"target gene":"NCOA2","rucaparib or vehicle":"Vehicle","cell line":"OCI-P5x (serous)","technical replicate":"1","viability, normalised (%)":"57.2 (active)"}
{"target gene":"NCOA2","rucaparib or vehicle":"Vehicle","cell line":"OCI-P5x (serous)","technical replicate":"2","viability, normalised (%)":"51.9 (active)"}
{"target gene":"NCOA2","rucaparib or vehicle":"Vehicle","cell line":"OCI-P5x (serous)","technical replicate":"3","viability, normalised (%)":"74.3 (active)"}
{"target gene":"HNRNPM","rucaparib or vehicle":"Rucaparib","cell line":"OCI-C5x (clear cell)","technical replicate":"1","viability, normalised (%)":"59.4 (active)"}
{"target gene":"HNRNPM","rucaparib or vehicle":"Rucaparib","cell line":"OCI-C5x (clear cell)","technical replicate":"2","viability, normalised (%)":"75.1 (active)"}
{"target gene":"HNRNPM","rucaparib or vehicle":"Rucaparib","cell line":"OCI-C5x (clear cell)","technical replicate":"3","viability, normalised (%)":"62.2 (active)"}
{"target gene":"HNRNPM","rucaparib or vehicle":"Rucaparib","cell line":"OCI-P5x (serous)","technical replicate":"1","viability, normalised (%)":84.9}
{"target gene":"HNRNPM","rucaparib or vehicle":"Rucaparib","cell line":"OCI-P5x (serous)","technical replicate":"2","viability, normalised (%)":"78.5 (active)"}
{"target gene":"HNRNPM","rucaparib or vehicle":"Rucaparib","cell line":"OCI-P5x (serous)","technical replicate":"3","viability, normalised (%)":"51.6 (active)"}
{"target gene":"HNRNPM","rucaparib or vehicle":"Vehicle","cell line":"OCI-C5x (clear cell)","technical replicate":"1","viability, normalised (%)":88.8}
{"target gene":"HNRNPM","rucaparib or vehicle":"Vehicle","cell line":"OCI-C5x (clear cell)","technical replicate":"2","viability, normalised (%)":84.2}
{"target gene":"HNRNPM","rucaparib or vehicle":"Vehicle","cell line":"OCI-C5x (clear cell)","technical replicate":"3","viability, normalised (%)":"54.5 (active)"}
{"target gene":"HNRNPM","rucaparib or vehicle":"Vehicle","cell line":"OCI-P5x (serous)","technical replicate":"1","viability, normalised (%)":"74.6 (active)"}
{"target gene":"HNRNPM","rucaparib or vehicle":"Vehicle","cell line":"OCI-P5x (serous)","technical replicate":"2","viability, normalised (%)":"71.9 (active)"}
{"target gene":"HNRNPM","rucaparib or vehicle":"Vehicle","cell line":"OCI-P5x (serous)","technical replicate":"3","viability, normalised (%)":"60.2 (active)"}

A few values from above:
For “viability, normalised (%)”, HNRNPM, rucaparib or vehicle Rucaparib, cell line OCI-C5x (clear cell), technical replicate 1 reads 59.4 (active)
Under “viability, normalised (%)”, HNRNPM, rucaparib or vehicle Vehicle, cell line OCI-P5x (serous), technical replicate 3 shows 60.2 (active)
NCOA2, rucaparib or vehicle Rucaparib, cell line OCI-P5x (serous), technical replicate 2, viability, normalised (%) = 52.3 (active)
For “viability, normalised (%)”, NCOA2, rucaparib or vehicle Vehicle, cell line OCI-P5x (serous), technical replicate 3 is entered as 74.3 (active)
Result of LRRK2, rucaparib or vehicle Rucaparib, cell line OCI-P5x (serous), technical replicate 2 in “viability, normalised (%)”: 105
